Common to all, as to assay: log2 fold change, soluble protein after heating vs DMSO (PISA); higher = thermal stabilisation; K562 lysate, 10 uM; active = over 0.2 and 3.5 SD of the protein, either way, in both replicates (recomputed)
Compound in experiment [1]: C1=CC2=NC=CN=C2C=C1/C=C/3\C(=O)NC(=O)S3
An outline of the steps: (§1)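 The values are log-two fold changes in thermal stability compared with solvent controls and come from duplicates. They were obtained by TMTpro 16plex LC-MS/MS, with channel sums equalised, on the supernatant after 21,000xg for 90 min. That supernatant came from crude K562 extract at 1 mg/mL protein treated with 10 μM compound for 30 min, heated for 3 min across 48°C-58°C, pooled and brought to 0.5% NP-40 at 4°C.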

The chains behind the UniProt entries cited, without tags or fusion partners. Where a name states a change or a piece, a line headed by the entry shows the natural chain unless it says otherwise.
UniProt Q6TDU7: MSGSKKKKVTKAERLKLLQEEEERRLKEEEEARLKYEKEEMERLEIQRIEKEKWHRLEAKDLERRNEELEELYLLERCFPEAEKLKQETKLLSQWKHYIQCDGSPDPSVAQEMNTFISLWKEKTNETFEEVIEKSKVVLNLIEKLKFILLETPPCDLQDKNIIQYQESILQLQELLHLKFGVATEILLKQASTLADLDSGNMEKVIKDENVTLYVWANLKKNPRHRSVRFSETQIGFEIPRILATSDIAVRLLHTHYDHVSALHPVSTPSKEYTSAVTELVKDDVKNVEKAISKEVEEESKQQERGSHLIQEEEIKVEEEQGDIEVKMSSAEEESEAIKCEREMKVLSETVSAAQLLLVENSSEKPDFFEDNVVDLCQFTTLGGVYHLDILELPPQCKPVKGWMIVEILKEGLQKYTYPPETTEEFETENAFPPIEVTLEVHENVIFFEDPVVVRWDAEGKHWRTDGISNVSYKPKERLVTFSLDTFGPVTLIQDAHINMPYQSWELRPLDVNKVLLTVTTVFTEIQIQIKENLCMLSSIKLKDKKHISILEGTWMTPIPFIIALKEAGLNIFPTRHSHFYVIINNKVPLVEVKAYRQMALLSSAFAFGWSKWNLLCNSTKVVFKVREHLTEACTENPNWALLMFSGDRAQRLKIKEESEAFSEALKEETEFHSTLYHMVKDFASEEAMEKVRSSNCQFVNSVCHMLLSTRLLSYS
UniProt P15529: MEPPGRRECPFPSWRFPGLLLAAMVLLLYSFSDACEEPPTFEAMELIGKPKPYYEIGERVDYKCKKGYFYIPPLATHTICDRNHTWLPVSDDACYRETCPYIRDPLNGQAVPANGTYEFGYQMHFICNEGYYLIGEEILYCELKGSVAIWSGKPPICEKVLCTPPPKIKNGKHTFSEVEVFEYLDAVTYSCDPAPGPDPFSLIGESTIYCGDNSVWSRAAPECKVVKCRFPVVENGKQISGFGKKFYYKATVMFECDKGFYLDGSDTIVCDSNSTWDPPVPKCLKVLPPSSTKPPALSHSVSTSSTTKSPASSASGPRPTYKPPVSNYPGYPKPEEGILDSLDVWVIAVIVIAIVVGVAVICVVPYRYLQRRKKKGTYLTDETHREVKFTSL
UniProt Q2TAC2: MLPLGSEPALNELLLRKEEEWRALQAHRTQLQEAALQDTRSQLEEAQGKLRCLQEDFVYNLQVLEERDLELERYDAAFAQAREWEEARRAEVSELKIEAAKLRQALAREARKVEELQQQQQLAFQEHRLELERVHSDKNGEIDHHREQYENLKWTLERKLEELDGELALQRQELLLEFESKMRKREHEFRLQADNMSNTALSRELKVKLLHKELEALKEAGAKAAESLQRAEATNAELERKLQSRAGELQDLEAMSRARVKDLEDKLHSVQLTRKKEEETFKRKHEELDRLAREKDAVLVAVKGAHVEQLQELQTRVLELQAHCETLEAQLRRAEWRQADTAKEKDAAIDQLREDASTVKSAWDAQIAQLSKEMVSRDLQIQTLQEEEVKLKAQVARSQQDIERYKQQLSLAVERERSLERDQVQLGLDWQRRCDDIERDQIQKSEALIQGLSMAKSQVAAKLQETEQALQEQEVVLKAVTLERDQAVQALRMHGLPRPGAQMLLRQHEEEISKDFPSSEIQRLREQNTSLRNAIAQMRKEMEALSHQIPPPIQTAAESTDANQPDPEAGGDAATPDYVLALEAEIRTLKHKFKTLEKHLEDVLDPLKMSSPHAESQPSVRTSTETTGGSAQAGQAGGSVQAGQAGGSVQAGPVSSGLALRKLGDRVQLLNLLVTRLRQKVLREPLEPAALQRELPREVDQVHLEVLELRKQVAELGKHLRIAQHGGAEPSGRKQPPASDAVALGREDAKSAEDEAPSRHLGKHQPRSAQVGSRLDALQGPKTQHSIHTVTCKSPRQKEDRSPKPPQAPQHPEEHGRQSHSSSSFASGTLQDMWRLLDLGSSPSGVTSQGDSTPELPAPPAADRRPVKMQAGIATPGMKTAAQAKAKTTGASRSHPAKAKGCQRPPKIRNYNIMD
UniProt P30279, whole entry, looked up: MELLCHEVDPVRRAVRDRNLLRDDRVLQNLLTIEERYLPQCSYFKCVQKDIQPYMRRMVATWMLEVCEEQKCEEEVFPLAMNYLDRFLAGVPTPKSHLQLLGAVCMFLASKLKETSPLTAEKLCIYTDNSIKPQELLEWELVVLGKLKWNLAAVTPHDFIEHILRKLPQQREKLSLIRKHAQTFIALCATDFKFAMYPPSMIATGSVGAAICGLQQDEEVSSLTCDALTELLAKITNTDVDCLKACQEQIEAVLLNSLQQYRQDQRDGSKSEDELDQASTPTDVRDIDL

Compound in experiment [2]: C1=CC=C(C=C1)C2=NC(=C(N2)C3=CC=NC=C3)C4=CC(=C(C=C4)Cl)O
An outline of the steps: as §1

Compound in another experiment: C1COCCN1CCN2C3=CC=CC=C3N=C2NC(=O)C4=CC(=CC=C4)[N+](=O)[O-] [IRAK-1-4 Inhibitor I]
Summed up: as §1

Compound in another experiment: C#Cc1cccc(Nc2ncnc3cc(OCCOC)c(OCCOC)cc23)c1 [erlotinib]
Summed up: as §1

Compound in experiment [3]: C1=CC(=CC=C1C2=NC3=C(N2)C=C(C=C3)C(=O)N)OC4=CC=C(C=C4)Cl
Summed up:
as §1

Compound in experiment [4]: C/C(=N\NC(=O)C1=CC(=CC=C1)S(=O)(=O)N2CCOCC2)/C3=C(C=CC(=C3)Cl)O
An outline of the steps:
as §1

Compound in experiment [5]: C1=CC2=C(C=CC(=C2)/C=C\3/C(=O)NC(=NCC4=CC=CS4)S3)N=C1
Summed up: as §1

Compound in experiment [6]: C1=CC=C2C(=C1)C3=NNC4=CC=CC(=C43)C2=O
Summed up: as §1

Compound in experiment [7]: C1CCN(C1)C(=O)NC2=CC=CC(=C2)NC3=NC=C(C(=N3)NCCC4=CN=CN4)Br
An outline of the steps:
as §1

Compound in experiment [8]: C1CN(CCC1(CC2=CC=C(C=C2)Cl)N)C3=NC=NC4=C3C=CN4
Summed up:
as §1

This is one part of the list.

CASC1 (UniProt Q6TDU7): the log2 fold change in experiment [1] is active: 1.74; in experiment [2], inactive: -0.03; with IRAK-1-4 Inhibitor I, inactive: 0.179.
The like results for CCDC9, A0A2R8Y4Z8 were, in that order, inactive: 0.075, inactive: 0.045 and inactive: 0.279.
As for CD46 (UniProt P15529), the log2 fold change in the experiment with erlotinib is inactive: -0.009; in experiment [3] it was inactive: -0.045.
Turning to CCDC57 (UniProt Q2TAC2), the log2 fold change in experiment [4] was inactive: 0.041; in experiment [5], inactive: -0.015; in experiment [1], inactive: -0.023; in [2] it was inactive: 0.042; in experiment [6], inactive: -0.035; in [7] it was inactive: -0.105. Besides, the values for the log2 fold change (in [8]; with IRAK-1-4 Inhibitor I) were inactive: -0.062 and inactive: 0.016, respectively.
For CCND2 (UniProt P30279), the log2 fold change with erlotinib was inactive: -0.023; in experiment [3] it was inactive: 0.139; in experiment [1], inactive: -0.006; in experiment [2] it was inactive: -0.051; with IRAK-1-4 Inhibitor I, inactive: -0.101.
